Source: article PMC12394690
Results are given in words; binding and its absence hold for the method and conditions named. Binding seen in cells or lysates may run through a third protein. These calls come from enrichment with a bait or labelling near it, and not all partners need be listed.

Chains of the proteins cited; added tags and fusions are not shown.
UniProt O00327: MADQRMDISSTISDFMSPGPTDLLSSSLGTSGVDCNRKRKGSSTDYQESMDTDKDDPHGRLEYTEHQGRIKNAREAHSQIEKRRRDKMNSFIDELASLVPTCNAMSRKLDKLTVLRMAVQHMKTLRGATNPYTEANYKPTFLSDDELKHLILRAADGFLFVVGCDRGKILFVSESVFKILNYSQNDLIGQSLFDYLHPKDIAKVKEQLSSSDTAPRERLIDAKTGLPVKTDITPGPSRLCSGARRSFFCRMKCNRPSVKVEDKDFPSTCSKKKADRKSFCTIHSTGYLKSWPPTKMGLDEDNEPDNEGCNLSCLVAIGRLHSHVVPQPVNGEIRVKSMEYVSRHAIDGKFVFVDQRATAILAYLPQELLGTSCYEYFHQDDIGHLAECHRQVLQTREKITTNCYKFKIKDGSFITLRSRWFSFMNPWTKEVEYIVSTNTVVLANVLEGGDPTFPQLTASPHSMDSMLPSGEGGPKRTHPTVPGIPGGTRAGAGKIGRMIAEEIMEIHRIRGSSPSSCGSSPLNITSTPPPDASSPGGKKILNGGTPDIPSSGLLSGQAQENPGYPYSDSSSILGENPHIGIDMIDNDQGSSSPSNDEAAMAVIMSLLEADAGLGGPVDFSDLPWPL
UniProt Q16531: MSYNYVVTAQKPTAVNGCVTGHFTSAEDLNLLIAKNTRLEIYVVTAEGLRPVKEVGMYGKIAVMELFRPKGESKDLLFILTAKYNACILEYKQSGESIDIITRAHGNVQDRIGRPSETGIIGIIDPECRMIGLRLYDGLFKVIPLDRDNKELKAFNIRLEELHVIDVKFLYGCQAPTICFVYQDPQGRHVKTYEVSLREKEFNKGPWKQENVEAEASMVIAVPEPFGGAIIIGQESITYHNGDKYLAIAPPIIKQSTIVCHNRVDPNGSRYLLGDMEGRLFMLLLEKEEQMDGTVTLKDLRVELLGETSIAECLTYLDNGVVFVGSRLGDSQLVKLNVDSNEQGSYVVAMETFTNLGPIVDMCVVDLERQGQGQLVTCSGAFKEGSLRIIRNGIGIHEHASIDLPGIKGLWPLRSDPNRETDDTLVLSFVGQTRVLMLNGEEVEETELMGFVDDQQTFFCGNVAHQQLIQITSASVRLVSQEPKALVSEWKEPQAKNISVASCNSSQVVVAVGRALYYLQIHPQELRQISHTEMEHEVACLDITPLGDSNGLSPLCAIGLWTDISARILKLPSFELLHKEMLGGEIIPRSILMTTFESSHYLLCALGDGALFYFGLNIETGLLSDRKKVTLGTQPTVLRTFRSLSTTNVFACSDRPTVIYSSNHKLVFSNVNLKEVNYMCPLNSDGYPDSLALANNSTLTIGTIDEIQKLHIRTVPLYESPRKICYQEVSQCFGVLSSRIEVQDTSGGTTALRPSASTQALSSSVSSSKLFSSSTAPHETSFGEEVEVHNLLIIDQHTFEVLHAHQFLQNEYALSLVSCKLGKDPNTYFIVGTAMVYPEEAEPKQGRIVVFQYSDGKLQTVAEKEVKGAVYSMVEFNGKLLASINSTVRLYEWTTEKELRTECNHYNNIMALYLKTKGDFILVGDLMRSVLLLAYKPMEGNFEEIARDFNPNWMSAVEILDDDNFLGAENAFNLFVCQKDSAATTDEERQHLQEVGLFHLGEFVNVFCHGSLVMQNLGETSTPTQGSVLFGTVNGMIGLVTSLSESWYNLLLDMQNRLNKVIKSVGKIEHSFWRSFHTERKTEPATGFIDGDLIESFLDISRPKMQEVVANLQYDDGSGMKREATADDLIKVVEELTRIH

Molecular target: T1, DDB1- and CUL4-associated factor 7 (DCAF7), expressed from a plasmid (UniProt P61962)
T1 sequence: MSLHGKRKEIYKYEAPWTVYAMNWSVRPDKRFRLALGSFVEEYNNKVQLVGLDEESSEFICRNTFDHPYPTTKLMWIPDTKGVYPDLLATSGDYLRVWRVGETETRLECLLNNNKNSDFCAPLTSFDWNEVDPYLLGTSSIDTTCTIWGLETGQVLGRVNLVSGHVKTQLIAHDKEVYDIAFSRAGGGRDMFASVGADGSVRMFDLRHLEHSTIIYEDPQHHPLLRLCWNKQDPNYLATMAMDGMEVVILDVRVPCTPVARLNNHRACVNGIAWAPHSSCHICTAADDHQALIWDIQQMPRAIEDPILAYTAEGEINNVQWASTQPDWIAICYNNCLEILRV
Experiment: affinity purification with mass spectrometry; immunoprecipitation of DCAF7, MS/MS, quantitative proteomics (volcano plot); details in the supplementary methods

binding | Substance
binds | BMAL1, endogenous (from UniProt O00327 1-626)
binds | DDB1, found in the DCAF7 IP-MS/MS (from UniProt Q16531 1-1140)
